Reference: the supplement of paper PMC10849652
The other results are listed elsewhere or left out.

Chains of the proteins cited; added tags and fusions are not shown. Lines headed by an entry give the natural chain unless they say otherwise; changes in a name come on top.
UniProt Q92506: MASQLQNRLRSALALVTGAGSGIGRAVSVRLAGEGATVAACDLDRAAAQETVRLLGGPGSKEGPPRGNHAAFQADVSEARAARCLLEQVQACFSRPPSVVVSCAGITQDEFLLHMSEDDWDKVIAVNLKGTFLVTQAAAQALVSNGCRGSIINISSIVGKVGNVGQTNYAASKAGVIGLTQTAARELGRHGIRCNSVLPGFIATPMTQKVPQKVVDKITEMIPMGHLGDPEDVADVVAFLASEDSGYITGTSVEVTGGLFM
UniProt P07910: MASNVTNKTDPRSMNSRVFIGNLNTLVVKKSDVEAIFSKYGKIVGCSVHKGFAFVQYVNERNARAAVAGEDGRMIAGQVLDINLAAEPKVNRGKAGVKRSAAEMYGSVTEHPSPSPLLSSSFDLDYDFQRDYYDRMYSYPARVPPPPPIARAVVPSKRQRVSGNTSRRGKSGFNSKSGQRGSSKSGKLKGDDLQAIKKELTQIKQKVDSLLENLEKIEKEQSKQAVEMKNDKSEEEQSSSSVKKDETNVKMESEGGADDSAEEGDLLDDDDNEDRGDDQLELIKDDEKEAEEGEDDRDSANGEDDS
UniProt Q14469: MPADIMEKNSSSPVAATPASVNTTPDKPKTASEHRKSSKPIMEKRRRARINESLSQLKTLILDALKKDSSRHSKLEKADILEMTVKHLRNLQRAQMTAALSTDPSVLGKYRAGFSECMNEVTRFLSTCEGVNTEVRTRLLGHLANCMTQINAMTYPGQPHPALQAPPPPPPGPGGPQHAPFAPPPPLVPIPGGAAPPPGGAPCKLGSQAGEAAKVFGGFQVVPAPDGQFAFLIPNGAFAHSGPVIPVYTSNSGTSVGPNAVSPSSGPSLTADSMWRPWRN
UniProt Q9UGU5: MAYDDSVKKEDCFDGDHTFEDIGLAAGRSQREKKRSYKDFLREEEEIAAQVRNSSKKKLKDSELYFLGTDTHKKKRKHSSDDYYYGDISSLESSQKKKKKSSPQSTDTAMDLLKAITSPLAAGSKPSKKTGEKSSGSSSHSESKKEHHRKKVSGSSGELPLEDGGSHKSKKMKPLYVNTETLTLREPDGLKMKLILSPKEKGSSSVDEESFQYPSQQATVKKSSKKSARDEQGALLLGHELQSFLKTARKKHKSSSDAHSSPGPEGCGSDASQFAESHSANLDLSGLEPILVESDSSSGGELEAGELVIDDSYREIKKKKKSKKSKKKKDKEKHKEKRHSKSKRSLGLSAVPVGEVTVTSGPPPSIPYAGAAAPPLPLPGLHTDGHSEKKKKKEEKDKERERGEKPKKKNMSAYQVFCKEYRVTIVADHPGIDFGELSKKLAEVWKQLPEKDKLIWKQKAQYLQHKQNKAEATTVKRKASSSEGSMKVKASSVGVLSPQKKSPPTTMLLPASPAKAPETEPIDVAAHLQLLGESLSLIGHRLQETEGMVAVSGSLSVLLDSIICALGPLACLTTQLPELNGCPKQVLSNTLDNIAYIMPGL
UniProt P50135: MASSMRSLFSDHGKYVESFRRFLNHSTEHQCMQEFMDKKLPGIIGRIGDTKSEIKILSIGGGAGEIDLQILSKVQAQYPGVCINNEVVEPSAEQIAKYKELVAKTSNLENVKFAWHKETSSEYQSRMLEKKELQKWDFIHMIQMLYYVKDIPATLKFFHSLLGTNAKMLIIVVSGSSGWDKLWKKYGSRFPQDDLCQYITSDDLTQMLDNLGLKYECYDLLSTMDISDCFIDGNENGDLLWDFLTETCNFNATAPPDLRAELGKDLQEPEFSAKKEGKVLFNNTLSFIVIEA
UniProt Q9NRZ9: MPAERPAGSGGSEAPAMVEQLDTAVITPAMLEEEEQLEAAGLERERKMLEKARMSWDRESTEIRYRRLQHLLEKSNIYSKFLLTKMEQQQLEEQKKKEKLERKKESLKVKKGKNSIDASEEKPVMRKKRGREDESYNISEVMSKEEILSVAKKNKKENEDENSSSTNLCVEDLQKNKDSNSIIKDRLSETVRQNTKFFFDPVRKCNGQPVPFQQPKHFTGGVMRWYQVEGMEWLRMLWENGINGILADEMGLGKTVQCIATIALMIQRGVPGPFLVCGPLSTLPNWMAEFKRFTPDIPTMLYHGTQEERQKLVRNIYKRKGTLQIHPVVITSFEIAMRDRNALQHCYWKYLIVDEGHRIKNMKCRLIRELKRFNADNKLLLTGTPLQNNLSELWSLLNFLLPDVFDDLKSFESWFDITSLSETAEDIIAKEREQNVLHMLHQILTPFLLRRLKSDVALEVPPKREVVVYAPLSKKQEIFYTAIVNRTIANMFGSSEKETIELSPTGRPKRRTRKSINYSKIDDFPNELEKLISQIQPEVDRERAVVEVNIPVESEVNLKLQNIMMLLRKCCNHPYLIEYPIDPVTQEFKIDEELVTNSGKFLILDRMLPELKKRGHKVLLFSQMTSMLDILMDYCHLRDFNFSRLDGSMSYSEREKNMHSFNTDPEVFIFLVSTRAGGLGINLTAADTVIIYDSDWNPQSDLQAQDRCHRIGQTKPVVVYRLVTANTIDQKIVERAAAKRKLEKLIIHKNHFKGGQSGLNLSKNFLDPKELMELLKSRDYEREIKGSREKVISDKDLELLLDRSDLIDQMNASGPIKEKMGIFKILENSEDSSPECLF
UniProt Q8NCD3, whole entry, looked up: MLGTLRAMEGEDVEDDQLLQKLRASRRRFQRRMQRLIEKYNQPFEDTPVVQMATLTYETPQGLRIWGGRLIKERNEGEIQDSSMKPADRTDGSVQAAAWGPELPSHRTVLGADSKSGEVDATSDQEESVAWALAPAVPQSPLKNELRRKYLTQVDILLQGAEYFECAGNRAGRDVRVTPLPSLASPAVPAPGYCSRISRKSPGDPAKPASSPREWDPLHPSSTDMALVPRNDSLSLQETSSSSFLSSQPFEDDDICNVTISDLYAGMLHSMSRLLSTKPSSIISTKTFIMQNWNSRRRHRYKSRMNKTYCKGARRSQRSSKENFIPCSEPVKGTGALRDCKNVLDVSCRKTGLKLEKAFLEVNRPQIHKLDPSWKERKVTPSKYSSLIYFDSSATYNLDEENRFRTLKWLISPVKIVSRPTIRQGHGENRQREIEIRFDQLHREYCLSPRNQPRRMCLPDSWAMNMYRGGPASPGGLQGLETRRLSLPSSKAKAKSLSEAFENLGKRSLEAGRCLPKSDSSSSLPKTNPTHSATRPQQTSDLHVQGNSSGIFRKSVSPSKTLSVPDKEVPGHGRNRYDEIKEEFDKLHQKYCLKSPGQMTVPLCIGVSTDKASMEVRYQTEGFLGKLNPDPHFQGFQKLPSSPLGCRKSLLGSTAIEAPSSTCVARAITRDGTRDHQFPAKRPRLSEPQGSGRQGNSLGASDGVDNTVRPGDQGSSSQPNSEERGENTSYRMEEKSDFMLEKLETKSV
UniProt Q96MH2: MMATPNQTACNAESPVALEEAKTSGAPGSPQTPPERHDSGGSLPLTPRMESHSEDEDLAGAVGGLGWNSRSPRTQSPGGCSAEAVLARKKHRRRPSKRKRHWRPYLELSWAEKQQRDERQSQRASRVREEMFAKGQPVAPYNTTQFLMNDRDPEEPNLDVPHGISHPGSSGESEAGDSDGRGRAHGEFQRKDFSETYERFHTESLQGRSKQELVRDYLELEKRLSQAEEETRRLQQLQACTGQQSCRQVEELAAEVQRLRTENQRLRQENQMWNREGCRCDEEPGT
UniProt Q9BYK8: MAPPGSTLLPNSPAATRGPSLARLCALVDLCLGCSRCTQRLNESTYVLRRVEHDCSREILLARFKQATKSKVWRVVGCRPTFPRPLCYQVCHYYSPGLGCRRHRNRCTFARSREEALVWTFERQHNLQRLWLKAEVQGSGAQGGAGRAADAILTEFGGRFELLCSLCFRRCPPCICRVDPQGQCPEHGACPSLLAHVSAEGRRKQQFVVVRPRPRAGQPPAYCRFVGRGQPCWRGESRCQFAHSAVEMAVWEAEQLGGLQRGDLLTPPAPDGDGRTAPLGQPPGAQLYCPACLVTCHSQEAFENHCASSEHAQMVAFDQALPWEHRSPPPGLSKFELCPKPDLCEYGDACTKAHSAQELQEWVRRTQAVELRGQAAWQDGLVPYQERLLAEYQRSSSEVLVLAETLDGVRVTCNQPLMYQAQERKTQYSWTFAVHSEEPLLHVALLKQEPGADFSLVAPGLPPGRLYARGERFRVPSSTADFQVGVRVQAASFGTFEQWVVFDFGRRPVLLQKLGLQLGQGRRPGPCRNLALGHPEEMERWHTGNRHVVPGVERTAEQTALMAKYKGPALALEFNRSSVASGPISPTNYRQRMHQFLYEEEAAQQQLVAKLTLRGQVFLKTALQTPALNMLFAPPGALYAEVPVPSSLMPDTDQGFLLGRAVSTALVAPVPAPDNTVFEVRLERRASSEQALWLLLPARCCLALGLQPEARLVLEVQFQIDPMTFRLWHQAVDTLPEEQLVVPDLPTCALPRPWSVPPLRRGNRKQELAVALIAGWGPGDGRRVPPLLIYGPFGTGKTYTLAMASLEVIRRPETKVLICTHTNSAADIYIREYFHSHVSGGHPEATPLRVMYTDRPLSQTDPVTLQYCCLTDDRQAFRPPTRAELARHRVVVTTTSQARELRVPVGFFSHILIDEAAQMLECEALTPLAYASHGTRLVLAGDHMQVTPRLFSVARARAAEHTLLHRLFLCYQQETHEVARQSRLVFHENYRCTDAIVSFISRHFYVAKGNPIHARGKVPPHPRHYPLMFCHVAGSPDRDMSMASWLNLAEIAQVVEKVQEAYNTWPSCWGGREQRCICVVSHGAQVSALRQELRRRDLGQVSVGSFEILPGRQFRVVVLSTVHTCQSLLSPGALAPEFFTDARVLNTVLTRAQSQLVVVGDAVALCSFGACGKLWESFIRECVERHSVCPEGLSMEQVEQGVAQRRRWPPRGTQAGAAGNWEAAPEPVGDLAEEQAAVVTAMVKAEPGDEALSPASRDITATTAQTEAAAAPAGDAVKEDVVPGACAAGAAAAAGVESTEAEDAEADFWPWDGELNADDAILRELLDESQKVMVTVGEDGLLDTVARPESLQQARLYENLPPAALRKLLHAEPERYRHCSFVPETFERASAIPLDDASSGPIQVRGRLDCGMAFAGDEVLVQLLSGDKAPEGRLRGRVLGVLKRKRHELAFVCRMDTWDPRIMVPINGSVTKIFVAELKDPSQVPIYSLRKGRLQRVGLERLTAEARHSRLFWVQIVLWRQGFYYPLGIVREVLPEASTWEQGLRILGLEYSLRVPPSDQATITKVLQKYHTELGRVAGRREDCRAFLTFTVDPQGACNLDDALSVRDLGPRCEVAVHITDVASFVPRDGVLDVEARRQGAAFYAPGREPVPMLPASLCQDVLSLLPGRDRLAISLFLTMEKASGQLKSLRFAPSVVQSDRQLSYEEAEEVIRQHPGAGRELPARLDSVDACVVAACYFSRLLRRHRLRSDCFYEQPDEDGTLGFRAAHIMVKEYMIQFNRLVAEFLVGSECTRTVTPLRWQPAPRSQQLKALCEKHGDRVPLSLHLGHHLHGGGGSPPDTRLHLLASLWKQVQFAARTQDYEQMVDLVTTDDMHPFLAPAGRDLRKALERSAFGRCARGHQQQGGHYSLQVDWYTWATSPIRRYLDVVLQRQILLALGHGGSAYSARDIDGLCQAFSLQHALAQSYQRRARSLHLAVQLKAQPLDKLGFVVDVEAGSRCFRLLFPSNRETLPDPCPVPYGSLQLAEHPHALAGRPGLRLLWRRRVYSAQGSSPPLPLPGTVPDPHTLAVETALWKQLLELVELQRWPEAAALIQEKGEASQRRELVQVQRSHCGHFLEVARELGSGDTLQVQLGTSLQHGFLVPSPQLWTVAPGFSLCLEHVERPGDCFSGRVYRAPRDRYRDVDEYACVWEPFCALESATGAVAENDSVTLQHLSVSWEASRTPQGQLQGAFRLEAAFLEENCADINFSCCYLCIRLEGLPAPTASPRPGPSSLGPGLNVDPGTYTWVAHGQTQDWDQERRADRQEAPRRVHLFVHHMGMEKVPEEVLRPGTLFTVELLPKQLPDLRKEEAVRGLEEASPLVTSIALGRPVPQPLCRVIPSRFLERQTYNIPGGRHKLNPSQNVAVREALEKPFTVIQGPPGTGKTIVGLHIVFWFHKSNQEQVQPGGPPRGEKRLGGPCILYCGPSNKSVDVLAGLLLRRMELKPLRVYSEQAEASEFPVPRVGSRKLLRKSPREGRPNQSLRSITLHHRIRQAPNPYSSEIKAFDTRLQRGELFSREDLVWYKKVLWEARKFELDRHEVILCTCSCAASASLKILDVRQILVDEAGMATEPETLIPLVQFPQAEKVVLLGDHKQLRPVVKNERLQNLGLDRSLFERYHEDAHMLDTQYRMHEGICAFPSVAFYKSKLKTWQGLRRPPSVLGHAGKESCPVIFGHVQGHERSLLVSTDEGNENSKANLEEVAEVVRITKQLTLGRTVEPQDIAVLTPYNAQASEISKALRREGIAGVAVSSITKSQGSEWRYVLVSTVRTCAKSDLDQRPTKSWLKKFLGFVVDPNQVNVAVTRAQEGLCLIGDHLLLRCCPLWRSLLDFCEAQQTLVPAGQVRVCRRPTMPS

How the values were obtained:
Assay in all cases: log2 fold change, soluble protein after heating vs DMSO (PISA); higher = thermal stabilisation; K562 lysate, 10 uM; active = over 0.2 and 3.5 SD of the protein, either way, in both replicates (recomputed)
[1] = compound: CN1CC[C@H](c2c(O)cc(O)c3c(=O)cc(-c4ccccc4Cl)oc23)[C@H](O)C1 [alvocidib]
Method in brief: (§1)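 K562 pellets were dounce-homogenised in PBS pH 7.4 containing 1 mM MgCl2, and the crude extract, at 1 mg/mL protein, was exposed to 10 μM compound for 30 min. Aliquots were heated for 3 min across 48°C-58°C, pooled, brought to 0.5% NP-40 at 4°C and spun at 21,000xg for 90 min, with the supernatant taken as soluble protein. TMTpro 16plex LC-MS/MS with equalised channel sums quantified that protein. Values are log-two fold changes in thermal stability relative to solvent controls, taken from duplicates.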

[2] = compound: CN1CCc2c(c3ccccc3n2Cc2ccc(C(=O)NO)cc2)C1 [Tubastatin A]
Method in brief: as §1

[3] = compound: CNC(=O)C1=CC=CC=C1NC2=NC(=NC=C2Cl)NC3=C(C=C(C=C3)N4CCOCC4)OC
Method in brief: as §1

[4] = compound: CNC(=O)c1ccc(Nc2ncc(C(F)(F)F)c(NCc3nccnc3N(C)S(C)(=O)=O)n2)cc1 [defactinib]
Method in brief: as §1

[5] = compound: CNc1nc(-c2ccc3c(N)n[nH]c3c2)cc(N2C[C@@H](C(=O)NC3CCCCC3)CC[C@H]2C)n1
Method in brief: as §1

[6] = compound: COC(=O)N[C@@H](C)CNc1nccc(-c2cn(C(C)C)nc2-c2cc(Cl)cc(NS(C)(=O)=O)c2F)n1 [encorafenib]
Method in brief: as §1

[7] = compound: COC(=O)[C@H](CCSC)NC(=O)C1=C(C=C(C=C1)NC[C@H](CS)N)C2=CC=CC=C2
Method in brief: as §1

[8] = compound: COc1cc(Nc2ncc3c(n2)-c2ccc(Cl)cc2C(c2c(F)cccc2OC)=NC3)ccc1C(=O)O [alisertib]
Method in brief: as §1

[9] = compound: COc1cc2nc(-c3cc(F)ccc3O)nc(N[C@@H]3CNC[C@H]3C(C)(C)O)c2cc1OC
Method in brief: as §1

[10] = compound: COc1cc2ncnc(Nc3ccc(F)c(Cl)c3)c2cc1OCCCN1CCOCC1 [gefitinib]
Method in brief: as §1

Measured: log2 fold change

HSP90AA4P (UniProt Q58FG1)
inactive: [1] -0.228 | [2] 0.052 | [3] -0.081 | [4] -0.213 | [5] -0.046 | [6] -0.022 | [7] 0.123 | [8] -0.012 | [9] 0.068 | [10] 0.042

HSD17B8 (UniProt Q92506)
inactive: [1] -0.02 | [2] 0.008 | [3] 0.024 | [4] 0.003 | [5] 0.033 | [6] 0.048 | [7] -0.022 | [8] 0.02 | [9] -0.002 | [10] 0.015

HSPA4L (UniProt O95757)
inactive: [1] -0.012 | [2] -0.018 | [3] -0.002 | [4] -0.028 | [5] -0.012 | [6] -0.005 | [7] 0.12 | [8] 0.005 | [9] -0.022 | [10] 0.014

HNRNPK isoform 2 (UniProt P61978)
inactive: [1] 0.001 | [2] -0.097 | [3] 0.016 | [4] -0.029 | [5] -0.005 | [6] 0.007 | [7] -0.023 | [8] 0.005 | [9] -0.01 | [10] 0.025

HEBP2 (UniProt Q9Y5Z4)
inactive: [1] 0.033 | [2] 0.039 | [3] 0.003 | [4] -0.033 | [5] -0.011 | [6] -0.007 | [7] -0.014 | [8] -0.027 | [9] 0.023 | [10] -0.019

HPS1 (UniProt Q92902)
inactive: [1] -0.045 | [2] -0.001 | [3] 0.029 | [4] 0.087 | [5] 0.002 | [6] 0.118 | [7] 0.02 | [9] 0.009

HNRNPC (UniProt P07910)
inactive: [1] -0.029 | [2] 0.005 | [3] -0.042 | [4] -0.01 | [5] 0.064 | [6] -0.025 | [7] 0.025 | [8] 0.006 | [9] -0.007 | [10] 0.004

HMGA1 isoform 2 (UniProt P17096)
inactive: [1] 0.289 | [2] 0.102 | [3] 0.085 | [5] 0.034 | [8] -0.255 | [9] -0.038 | [10] -0.442

HMGN3 (UniProt Q15651)
inactive: [1] -0.017 | [2] 0.011 | [3] -0.068 | [5] 0.032 | [8] -0.055 | [9] -0.004 | [10] -0.062

HMGN2 (UniProt P05204)
inactive: [1] 0.019 | [2] 0.012 | [3] -0.008 | [4] -0.013 | [5] 0.014 | [6] -0.067 | [7] 0.023 | [8] -0.047 | [9] 0.047 | [10] -0.011

HOOK3 (UniProt Q86VS8)
inactive: [1] -0.001 | [2] -0.019 | [3] 0.053 | [4] 0 | [5] 0.019 | [6] 0.054 | [7] -0.03 | [8] 0.007 | [9] 0.002 | [10] 0.053

HES1 (UniProt Q14469)
inactive: [1] -0.223 | [2] 0.066 | [3] -0.053 | [5] 0.08 | [6] -0.133 | [7] 0.213 | [8] -0.062 | [9] 0.159 | [10] -0.125

HMGCR isoform 3 (UniProt P04035)
inactive: [6] 0.221 | [7] -0.058

HSP90AA2P (UniProt Q14568)
inactive: [6] 0.044 | [7] -0.07

HMGXB4 (UniProt Q9UGU5)
inactive: [3] 0.05 | [4] -0.009 | [6] -0.292 | [7] 0.018

HRAS (UniProt P01112)
inactive: [2] 0.156 | [3] 0.056 | [5] 0.084 | [6] 0.007 | [7] -0.111 | [8] 0.074 | [9] -0.035 | [10] 0.046

HNMT (UniProt P50135)
inactive: [1] -0.013 | [3] -0.009 | [5] 0.033 | [6] 0.073 | [7] -0.072 | [9] -0.102

HELLS (UniProt Q9NRZ9)
inactive: [2] -0.149 | [3] 0.005 | [5] 0.019 | [6] -0.07 | [7] -0.045 | [8] -0.042 | [10] -0.042

HNRNPM (UniProt M0QZM1)
inactive: [4] 0.073 | [5] 0.128 | [6] 0.006 | [7] -0.025

HGFAC (UniProt Q04756)
inactive: [1] -0.119 | [8] -0.114 | [10] -0.04

HPS4 isoform 4 (UniProt Q9NQG7)
inactive: [2] -0.005 | [3] -0.045 | [4] 0.074 | [5] 0.198 | [6] -0.042 | [7] 0.033 | [9] -0.108

HECW2 (UniProt Q9P2P5)
inactive: [2] -0.002 | [3] 0.102 | [4] -0.087 | [5] -0.099 | [6] 0 | [7] 0.153 | [8] 0.114 | [10] 0.117

HJURP (UniProt Q8NCD3)
inactive: [2] -0.052 | [3] 0.074 | [4] -0.018 | [5] 0.029 | [8] -0.072 | [9] -0.021 | [10] 0.042

HMX3 (UniProt A6NHT5)
inactive: [3] 0.035

HPS6 (UniProt Q86YV9)
inactive: [1] -0.164 | [5] 0.238 | [6] 0.036 | [7] 0.057 | [8] 0.066 | [10] -0.097

HMGXB3 (UniProt Q12766)
inactive: [6] -0.029 | [7] 0

HEXIM2 (UniProt Q96MH2)
inactive: [2] 0.108 | [3] 0 | [5] 0.004

HERC3 (UniProt Q15034)
inactive: [2] -0.169 | [5] -0.115 | [6] 0.015 | [7] -0.007

HS6ST1 (UniProt O60243)
inactive: [3] -0.05

HELZ2 (UniProt Q9BYK8)
inactive: [3] -0.221 | [4] 0.064 | [8] -0.093 | [10] -0.032

2 entries drawn at random from those above:
HELZ2 (UniProt Q9BYK8)
inactive: [3] -0.221 | [4] 0.064 | [8] -0.093 | [10] -0.032

HERC3 (UniProt Q15034)
inactive: [2] -0.169 | [5] -0.115 | [6] 0.015 | [7] -0.007
